Data published in paper PMC12589557.
No constants are given. Whether binding was seen depends on the method and setting. In cells and extracts the contact can be indirect. Some entries that bind do so weakly or less than the wild type.

The chains behind the UniProt entries cited, without tags or fusion partners.
UniProt Q969G3: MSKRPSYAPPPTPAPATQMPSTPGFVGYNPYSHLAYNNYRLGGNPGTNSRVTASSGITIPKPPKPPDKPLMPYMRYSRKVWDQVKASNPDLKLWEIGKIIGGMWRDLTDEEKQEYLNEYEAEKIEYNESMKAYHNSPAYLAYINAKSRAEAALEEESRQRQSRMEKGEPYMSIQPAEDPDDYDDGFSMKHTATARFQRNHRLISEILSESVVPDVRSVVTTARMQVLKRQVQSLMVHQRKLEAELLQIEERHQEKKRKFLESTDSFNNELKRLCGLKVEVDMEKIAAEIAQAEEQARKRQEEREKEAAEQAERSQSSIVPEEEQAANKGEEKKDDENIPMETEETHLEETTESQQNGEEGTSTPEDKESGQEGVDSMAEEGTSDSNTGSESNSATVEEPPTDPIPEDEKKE
UniProt Q86U86: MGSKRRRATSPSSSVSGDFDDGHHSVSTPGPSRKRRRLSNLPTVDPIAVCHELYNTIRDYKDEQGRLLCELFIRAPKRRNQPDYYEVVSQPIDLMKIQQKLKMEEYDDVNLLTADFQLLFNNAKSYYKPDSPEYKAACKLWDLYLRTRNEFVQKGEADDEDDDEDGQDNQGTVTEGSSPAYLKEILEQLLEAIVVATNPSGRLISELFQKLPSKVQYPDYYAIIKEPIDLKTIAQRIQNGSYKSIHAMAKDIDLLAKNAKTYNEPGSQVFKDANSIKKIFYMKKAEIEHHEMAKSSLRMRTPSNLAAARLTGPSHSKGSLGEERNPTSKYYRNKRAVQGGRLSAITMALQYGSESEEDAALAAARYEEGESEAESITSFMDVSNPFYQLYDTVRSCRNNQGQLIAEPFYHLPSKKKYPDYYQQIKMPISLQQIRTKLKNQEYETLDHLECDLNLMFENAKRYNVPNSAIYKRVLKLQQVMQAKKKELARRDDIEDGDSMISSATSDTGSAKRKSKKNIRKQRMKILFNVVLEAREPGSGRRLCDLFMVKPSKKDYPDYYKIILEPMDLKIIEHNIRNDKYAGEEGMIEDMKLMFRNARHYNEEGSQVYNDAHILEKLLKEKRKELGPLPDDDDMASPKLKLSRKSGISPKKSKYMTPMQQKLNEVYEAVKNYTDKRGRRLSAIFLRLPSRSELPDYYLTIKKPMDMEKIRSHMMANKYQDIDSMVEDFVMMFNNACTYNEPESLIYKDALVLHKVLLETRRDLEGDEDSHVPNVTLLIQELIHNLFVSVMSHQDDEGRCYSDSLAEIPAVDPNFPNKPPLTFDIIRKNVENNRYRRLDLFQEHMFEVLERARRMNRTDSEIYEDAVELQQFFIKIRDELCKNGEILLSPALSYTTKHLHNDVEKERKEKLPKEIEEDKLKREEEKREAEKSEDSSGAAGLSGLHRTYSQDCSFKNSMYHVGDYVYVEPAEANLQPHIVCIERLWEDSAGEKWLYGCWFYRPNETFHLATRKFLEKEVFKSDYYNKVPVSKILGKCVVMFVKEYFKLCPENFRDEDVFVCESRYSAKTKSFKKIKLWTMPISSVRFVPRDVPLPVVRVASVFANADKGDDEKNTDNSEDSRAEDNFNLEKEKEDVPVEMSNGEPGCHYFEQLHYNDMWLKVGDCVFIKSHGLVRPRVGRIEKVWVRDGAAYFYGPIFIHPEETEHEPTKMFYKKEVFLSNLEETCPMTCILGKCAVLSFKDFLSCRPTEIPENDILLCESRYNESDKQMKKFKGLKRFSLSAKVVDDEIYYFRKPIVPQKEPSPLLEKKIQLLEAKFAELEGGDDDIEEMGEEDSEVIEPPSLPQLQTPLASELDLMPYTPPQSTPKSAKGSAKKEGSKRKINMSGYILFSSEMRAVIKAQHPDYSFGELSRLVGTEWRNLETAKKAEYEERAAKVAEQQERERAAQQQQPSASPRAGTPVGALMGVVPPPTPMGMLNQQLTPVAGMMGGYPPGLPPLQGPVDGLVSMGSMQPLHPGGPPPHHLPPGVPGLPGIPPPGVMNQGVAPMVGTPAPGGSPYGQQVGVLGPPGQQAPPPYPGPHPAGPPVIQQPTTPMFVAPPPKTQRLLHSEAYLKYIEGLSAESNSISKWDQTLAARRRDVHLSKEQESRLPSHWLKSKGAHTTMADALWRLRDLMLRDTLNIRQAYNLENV
UniProt Q12824: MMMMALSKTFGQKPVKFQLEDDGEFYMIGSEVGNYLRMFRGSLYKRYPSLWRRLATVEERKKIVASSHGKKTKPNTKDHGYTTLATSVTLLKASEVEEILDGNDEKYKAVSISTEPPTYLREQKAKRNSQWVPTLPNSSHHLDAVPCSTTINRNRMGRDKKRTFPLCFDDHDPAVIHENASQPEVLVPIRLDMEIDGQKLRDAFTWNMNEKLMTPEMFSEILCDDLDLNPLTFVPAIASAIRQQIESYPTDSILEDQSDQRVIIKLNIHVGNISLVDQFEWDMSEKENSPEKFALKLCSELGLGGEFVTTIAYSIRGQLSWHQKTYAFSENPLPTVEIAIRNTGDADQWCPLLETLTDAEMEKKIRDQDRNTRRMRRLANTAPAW

Target: SMARCE1 (human (endogenous in HS-SY-II and Yamato)) (UniProt Q969G3)
Assay: co-IP; anti-BAF57/SMARCE1 antibody (5 ug) with Protein A Sepharose on 500 ug nuclear lysate of HS-SY-II and Yamato cells transfected with 6His-SUMO2; untreated or 100 nM TAK-981 for 36 h; Pierce IP lysis buffer with NEM; 4 C overnight; normal rabbit IgG as control

| binding | Substance |
| --- | --- |
| binds | PBRM1 (from UniProt Q86U86 1-1689) |
| binds | SMARCB1 (BAF47) (from UniProt Q12824 1-385) |
